Hit rate of the full screen: of about 300,000 compounds, about 3,700 (1.2%) were called active. Inconclusive means that the source gave no clear call. Such entries were picked first, then a sample of the others. The call rests on the fitted dose curve; tested in HEK293 cells. Potencies of inconclusive entries are doubtful fits and often do not repeat.
Assay: qHTS for Inhibitors of binding or entry into cells for Lassa Virus; further: nearly all actives have a fitted effect of over 50% in size
Settings: Lassa virus pseudotype entry inhibition, cell reporter; series mostly up to 37.9 µM
In the case of `O=C(NC12CC3CC(CC(C3)C1)C2)c1ccc(-c2ccccc2Cl)o1`, the Potency is reported as inconclusive: 11.2 µM [inhibitor, single point].
With `O=C(CN1C(=O)c2ccccc2S1(=O)=O)NCCSCc1ccccc1Cl` the Potency was “inactive”.
With `COc1ccc(NC(=O)c2cccc(S(=O)(=O)N3CCc4ccccc43)c2)cn1` the Potency was “inactive”.
For `O=C(N/N=C/c1ccco1)c1cccc(NC(=O)c2cccc(Cl)c2)c1`, the Potency was inconclusive: 15.8 µM [inhibitor, single point].
In the case of `O=C(Cc1ccccc1)Nc1c(C(=O)N2CCCCCC2)cnn1-c1ccccc1`, the Potency is reported as inconclusive: 3.55 µM [inhibitor, partial curve, poor fit].
For `Cc1nn(Cc2ccccc2Cl)c(Cl)c1C(=O)NCCc1ccccc1`, the Potency was inconclusive: 16.4 µM [inhibitor, single point].
For `COc1ccc(CCNC(=O)CCCn2c(=O)c3ccccc3n(CC(=O)Nc3c(C)cc(C)cc3C)c2=O)cc1OC`, the Potency was “inactive”.
With `COC(=O)c1c(NC(=O)c2ccc(S(=O)(=O)N3CCCCC3)cc2)sc2c1CCN(C)C2` the Potency was “inactive”.
With `CCCC1S/C(=N/N=C/c2ccc(OC)cc2)N(Cc2ccccc2)C1=O` (stereo unspecified) the Potency was inconclusive: 29.1 µM [inhibitor, single point].
In the case of `COc1cccc(OC)c1C(=O)Nn1c(-c2cccc(C)c2)nc2ccccc2c1=O`, the Potency is reported as “inactive”.
With `CCN1Cc2cccc(C(=O)Nc3ccc(F)cc3)c2C1=O` the Potency was inconclusive: 15.8 µM [activator, single point].
For `CCOC(=O)c1ccc(OCC2c3cc(OC)c(OC)cc3CCN2C(=O)Cc2ccc(OC)c(OC)c2)cc1` (stereo unspecified), the Potency was inconclusive: 7.08 µM [inhibitor, full curve, poor fit].
In the case of `COc1cc(/C=C2/C(=N)N3C=CSC3=NC2=O)ccc1OCCCOc1cc(C)ccc1C`, the Potency is reported as inconclusive: 11.2 µM [inhibitor, single point].
For `Cc1ccc(NC(=O)N2CCCc3ccccc32)cc1C`, the Potency was “inactive”.
In the case of `CN1C(=O)N(C)C2(c3ccccc3)N(C)C(=O)NC12c1ccccc1` (stereo unspecified), the Potency is reported as inconclusive: 8.2 µM [activator, partial curve, poor fit].
In the case of `COc1ccc(NC(=O)Cc2nnc(SCC(=O)NC3CCCCC3)n2C)cc1`, the Potency is reported as “inactive”.
For `CCn1c(SCC(=O)c2cccs2)nnc1-c1cccs1`, the Potency was inconclusive: 0.0058 µM [activator, full curve, poor fit].
In the case of `CC1(NC(=S)NCCCCCCNC(=S)NC2(C)CCS(=O)(=O)C2)CCS(=O)(=O)C1` (stereo unspecified), the Potency is reported as “inactive”.
In the case of `COC(=O)CNC(c1ccccc1)c1cc(Br)ccc1NC(=O)c1cc(OC)c(OC)c(OC)c1` (stereo unspecified), the Potency is reported as inconclusive: 1.78 µM [inhibitor, partial curve, poor fit].
With `Cc1cc(C)c(S(=O)(=O)N2CCOCC2)c(C)c1N(C)S(=O)(=O)c1ccccc1` the Potency was inconclusive: 35.5 µM [inhibitor, single point].
With `O=C1CC(c2ccc(Cl)cc2)SC(N(c2ccccc2)c2ccccc2)=N1` (stereo unspecified) the Potency was inconclusive: 35.5 µM [inhibitor, single point].
With `CN(c1ccccc1)S(=O)(=O)c1cccc(NC(=O)CN2C(=O)NC3(CCCC3)C2=O)c1` the Potency was “inactive”.
With `CCOc1ccc2nc(N3CCCCCC3)sc2c1` the Potency was inconclusive: 32.6 µM [inhibitor, single point].
With `COc1cccc(NC(=O)CN(C)C(=O)c2ccc3c(c2)CC(c2ccccc2)OC3=O)c1` (stereo unspecified) the Potency was inconclusive: 8.91 µM [inhibitor, partial curve, poor fit].
In the case of `CCC1CCCCN1C(=O)CSc1nnc2nc(C)cc(C)n12` (stereo unspecified), the Potency is reported as “inactive”.
In the case of `CCOCCCN(C)C1CCN(C(=O)c2oc3ccccc3c2NC(=O)c2cccc([N+](=O)[O-])c2)CC1`, the Potency is reported as inconclusive: 3.16 µM [inhibitor, partial curve, poor fit].
With `CC(C)C(=O)Nc1nnc(CCN2CCOCC2)s1` the Potency was inconclusive: 13 µM [activator, partial curve, poor fit].
For `COc1ccc(Cl)cc1NC(=O)Nc1cccc([N+](=O)[O-])c1C`, the Potency was inconclusive: 35.5 µM [inhibitor, single point].
For `CCOc1ccc(-n2c(O)c(/C=N/c3ccnn3Cc3ccncc3)c3ccccc3c2=O)cc1`, the Potency was inconclusive: 5.01 µM [inhibitor, full curve].
For `N/C(Cc1ccc([N+](=O)[O-])cc1)=N\OC(=O)Cc1ccc(Cl)cc1`, the Potency was “inactive”.
For `O=[N+]([O-])c1ccc(CCNc2cccc3ccccc23)c([N+](=O)[O-])c1`, the Potency was inconclusive: 6.31 µM [inhibitor, single point].
In the case of `COc1ccc(/C=N/n2c(SC)nnc(C(C)(C)C)c2=O)c(OC)c1`, the Potency is reported as active: 6.31 µM.
For `CCOc1ccc(CNC(=O)Cn2nc(C)n3cccc3c2=O)cc1`, the Potency was “inactive”.
With `O=C(/C=C/c1ccc(F)cc1)c1cc(Br)ccc1O` the Potency was inconclusive: 35.5 µM [inhibitor, single point].
With `CCc1ccc(-n2nc3ccc(NC(=O)c4cc(Cl)c(OC)c(Cl)c4)cc3n2)cc1` the Potency was “inactive”.
In the case of `Cc1ccc(CNC(=O)c2cc3c(s2)CN(Cc2ccccc2)C3)cc1`, the Potency is reported as inconclusive: 35.5 µM [inhibitor, partial curve, poor fit].
For `O=C(COC(=O)C1CC1)Nc1ncc(C(F)(F)F)cc1Cl`, the Potency was “inactive”.
In the case of `CCCC(=O)Nc1ccc(C(=O)Nc2nnc(COC)s2)cc1`, the Potency is reported as inconclusive: 0.058 µM [activator, partial curve, poor fit].
In the case of `CCCCn1cc(S(=O)(=O)c2ccc(OCC)cc2)c(=O)c2cc(OC)c(OC)cc21`, the Potency is reported as inconclusive: 15.8 µM [inhibitor, single point].
With `Cc1ccc(Cl)cc1N1CCN(Cc2nnnn2Cc2ccco2)CC1` the Potency was inconclusive: 20 µM [inhibitor, partial curve, poor fit].
In the case of `CC(C)(C)C1CCC2(CC1)SCC(=O)N2c1ccccc1` (stereo unspecified), the Potency is reported as inconclusive: 2.31 µM [inhibitor, full curve, poor fit].
For `CN(C(=O)CSc1nc2ccc(NC(=O)c3ccccc3F)cc2s1)c1ccccc1`, the Potency was inconclusive: 8.91 µM [inhibitor, partial curve, poor fit].
With `CCOc1ccccc1N(C)S(=O)(=O)c1ccc2c(c1)CC(C)N2C(=O)C1CC1` (stereo unspecified) the Potency was inconclusive: 3.16 µM [inhibitor, partial curve, poor fit].
With `Cc1cc(O)c(NC(=O)c2ccc(Br)o2)cc1C` the Potency was inconclusive: 1.03 µM [activator, partial curve].
With `Fc1ccc(Nc2nc(N3CCOCC3)nc(N3CCOCC3)n2)cc1` the Potency was inconclusive: 5.62 µM [activator, single point].
For `CCC(=NCC1CCCO1)c1c(O)n(-c2ccccc2)c(=O)[nH]c1=O` (stereo unspecified), the Potency was inconclusive: 10 µM [inhibitor, partial curve].
In the case of `CCOC(=O)N1CCN(Cc2nc3cc(NC(=O)CC)ccc3n2C)CC1`, the Potency is reported as “inactive”.
With `CC(C)Cn1cc(NC(=O)NCc2ccccc2)c2ccccc2c1=O` the Potency was inconclusive: 11.2 µM [activator, partial curve, poor fit].
For `CCCCn1c(=N)c(S(=O)(=O)c2ccccc2)cc2c(=O)n3cccc(C)c3nc21`, the Potency was inconclusive: 35.5 µM [activator, single point].
With `COCOCCn1cc(CN2CCS(=O)(=O)N(Cc3ccc(-c4ccc(C)cc4)cc3)C(C(C)C)C2=O)nn1` (stereo unspecified) the Potency was inconclusive: 0.0013 µM [activator].
In the case of `Cc1ccnc(SCCn2c(N3CCC(C)CC3)nc3c2c(=O)n(C)c(=O)n3C)n1`, the Potency is reported as inconclusive: 0.411 µM [inhibitor, partial curve, poor fit].
For `CC(C)NC(=O)[C@@H]1C[C@@]1(C)[C@@H](NC(=O)OCc1ccccc1)c1ccccc1`, the Potency was inconclusive: 29.1 µM [inhibitor, single point].
With `COc1ccc(-c2nc(C)c(CCNC(=O)c3ccc(F)c(F)c3)s2)cc1` the Potency was “inactive”.
In the case of `Cc1ccccc1CNC(=O)c1cccc(NC(=O)c2nsc3ccccc23)c1`, the Potency is reported as inconclusive: 35.5 µM [inhibitor, single point].
In the case of `Cc1ccc(Nc2nc3ccccc3s2)cc1`, the Potency is reported as inconclusive: 20 µM [inhibitor, single point].
For `CCN(c1ccc(C(O)(C(=O)OC)C(F)(F)F)cc1)S(=O)(=O)c1ccccc1` (stereo unspecified), the Potency was inconclusive: 8.91 µM [inhibitor, partial curve, poor fit].
In the case of `O=C(Nc1ccccc1)N1N=C(c2cccs2)CC1c1cccs1` (stereo unspecified), the Potency is reported as inconclusive: 17.8 µM [inhibitor, single point].
In the case of `COc1ccc(NC(=O)N/C=C/c2ccc(Cl)cc2)cc1`, the Potency is reported as inconclusive: 6.31 µM [inhibitor, single point].
With `CC(C(=O)N/N=C/c1ccc(N(C)C)c(Br)c1)N(c1ccccc1)S(C)(=O)=O` (stereo unspecified) the Potency was “inactive”.
For `Cc1cc(C(=O)COc2cccnc2[N+](=O)[O-])c(C)n1-c1ccccc1`, the Potency was active: 4.61 µM.
With `CCOC(=O)c1ccc(NC(=S)N(CCCN2CCCCCC2)Cc2ccco2)cc1` the Potency was inconclusive: 2 µM [inhibitor, full curve, poor fit].
In the case of `CC(C)c1ccc(NC(=O)c2cn(C3CCCCC3)c(=O)c3c2c2ccccc2n3C)cc1`, the Potency is reported as “inactive”.
With `CCOc1ccc(C(=O)Nc2ccc(Cl)cn2)cc1Cl` the Potency was inconclusive: 16.4 µM [inhibitor, single point].
In the case of `COc1ccc(NC(=O)c2c(C(F)(F)F)nn(C)c2SCc2ccccc2)cc1`, the Potency is reported as inconclusive: 29.1 µM [inhibitor, single point].
With `COC(=O)CCCC(=O)N(C)CC1CCCN(CCc2ccccc2C)C1` (stereo unspecified) the Potency was “inactive”.
For `Cc1cccc(NC(=O)CCN2CCN(C)CC2)c1`, the Potency was inconclusive: 6.31 µM [inhibitor, partial curve, poor fit].

Source: PubChem BioAssay AID540256 (National Center for Advancing Translational Sciences (NCATS), 2011)
Potency means the concentration at half of the fitted maximal effect.
